Measurements reported in PubChem BioAssay AID1259415 (National Center for Advancing Translational Sciences (NCATS), 2018).
Values joined by “and” are separate entries in the source; they are usually repeats but may differ in a detail not shown here. Equal entries are not always repeated. About 18,000 (4.4%) of roughly 410,000 compounds were called active. This list was built around the results that the source calls inconclusive (neither active nor inactive); the mix of calls is not that of the screen. Cut-off read from the data, not from the text of the source: active = activity change below about -60%; inconclusive = no clear call, values can overlap the other calls; inactive = above about -39%.
% is set by controls: 0 for no effect and ±100 for the full control effect.

Experiment: qHTS Assay for inhibitors of the human cytomegalovirus (HCMV)
Conditions: HFF cells, HCMV-luciferase reporter, 72 h; at 57.5 µM; hits give low values
Outline: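 Two-dose cell screen: HFF monolayers treated with compounds and infected with luciferase-expressing HCMV at 1 PFU/cell, 72 h at 37C, then lysed for luciferase measurement.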
With `O=C(/C=C/c1ccco1)N1CCCC(c2ccccc2)C1` (stereo not drawn) the activity change, negative = inhibition was inconclusive: -56.6%. In the case of `Cc1cccc2c1NC1(CCCC1)CC2C` (stereo not drawn), the activity change, negative = inhibition is reported as active: -63%. For `O=C(CCCCCNc1nc(=S)[nH]c2ccccc12)N1CCN(c2ccccn2)CC1`, the activity change, negative = inhibition was inconclusive: -41%. With `COc1ccccc1Oc1nc([N+](=O)[O-])nn1CC(N)=O` the activity change, negative = inhibition was inactive: -20.3%. With `Cc1ccc(-c2noc(-c3nnn(CC(=O)Nc4ccc(C)cc4Cl)c3N)n2)cc1` the activity change, negative = inhibition was inactive: -2.78%. For `COC(=O)Cc1ccc(NC(=S)NNC(=O)c2ccccc2Br)cc1`, the activity change, negative = inhibition was inconclusive: -44.6%. With `O=C(Cn1c(-c2cccs2)cc2ccccc21)NCCCN1CCN(c2cccc(Cl)c2)CC1` the activity change, negative = inhibition was inconclusive: -40.6%. With `CSc1nc(N)nc(SCC(=O)OC(C)C)c1C#N` the activity change, negative = inhibition was active: -108%. In the case of `COc1ccccc1NC(=O)c1ccc(S(=O)(=O)N2CCCC(C)C2)cc1` (stereo not drawn), the activity change, negative = inhibition is reported as active: -63.5%. In the case of `Cc1ccc(NC(=O)CCCCCN2C(=O)c3ccccc3C2=O)nc1`, the activity change, negative = inhibition is reported as inconclusive: -42.1%. With `Cc1csc(C(=O)NN)c1N(C)C` the activity change, negative = inhibition was inactive: -4.36%. For `COc1ccc(C2=Cc3ccccc3C(CC(=O)C3CC3)N2c2ccc(-c3cc(OC)c(OC)c(OC)c3)cc2)cc1` (stereo not drawn), the activity change, negative = inhibition was inconclusive: -45.3%. With `COc1ccccc1NS(=O)(=O)c1cc(NC(=O)c2cccs2)ccc1N1CCCC1` the activity change, negative = inhibition was inconclusive: -47%. For `CC(OC(=O)c1ccccc1C(=O)N(C)Cc1ccccc1)C(=O)NC1(C#N)CCCCC1` (stereo not drawn), the activity change, negative = inhibition was inactive: 1.67%. With `COc1cc(Cl)c(C)cc1N1C(=O)CN(Cc2ccccc2)C1=S` the activity change, negative = inhibition was inactive: -12.5%. For `COc1ccc(CCNS(=O)(=O)c2cc3c4c(c2)CC(=O)N4CCC3)cc1`, the activity change, negative = inhibition was inactive: 29.6%. With `COc1cccc(CNC(=O)C2Cc3ccccc3CN2C(C)=O)c1` (stereo not drawn) the activity change, negative = inhibition was inactive: -20.6%. For `Cc1ccc2ccc(C(Nc3ccccc3)c3ccc(Cl)cc3)c(O)c2n1` (stereo not drawn), the activity change, negative = inhibition was inconclusive: -45.1%. With `CCCCn1c(SCC(=O)c2ccc(OC)cc2OC)nc2cc(S(N)(=O)=O)ccc21` the activity change, negative = inhibition was inconclusive: -45.9%. For `Cc1cc(/C=C2\SC(=S)N(Cc3ccco3)C2=O)c(C)n1-c1ccccc1`, the activity change, negative = inhibition was active: -67.4%. With `COc1cccc(C2NC(C)(C(=O)O)C3C(=O)N(C(C)C)C(=O)C23)c1O` (stereo not drawn) the activity change, negative = inhibition was inconclusive: -55.8%. In the case of `Cc1c(C)n(C)c2ccc(C(=O)NCCCN3CCN(c4ccccc4F)CC3)cc12`, the activity change, negative = inhibition is reported as inactive: 0%. For `CCCCNC(=O)C[C@@H]1C[C@@]2(C(=O)OCC)CCCC=C2N(Cc2ccco2)C1=O`, the activity change, negative = inhibition was inconclusive: -46.6%. For `CCOC(=O)Cc1cc(=O)n2[nH]c(C(C)(C)C)cc2n1`, the activity change, negative = inhibition was inactive: -2.9%. For `COc1ccc(CCNC(=O)c2nc(SCc3ccc(F)cc3)ncc2Cl)cc1OC`, the activity change, negative = inhibition was inconclusive: -42.7%. With `COc1ccc(C(=O)C(C)OC(=O)c2cccc(S(=O)(=O)Nc3c(C)n(C)n(-c4ccccc4)c3=O)c2)cc1` (stereo not drawn) the activity change, negative = inhibition was inconclusive: -48.1%. For `O=C(NNC(=S)NCc1ccccc1)c1cccnc1`, the activity change, negative = inhibition was inactive: 72%. For `CCOc1cccc(/C=N/N2CCN(c3ccc(Cl)cc3)CC2)c1O`, the activity change, negative = inhibition was active: -94.3%. For `Cc1cccnc1Nc1nc(-c2ccccn2)cs1`, the activity change, negative = inhibition was active: -106%. For `Cc1cccc(Nc2ncnc3ccccc23)c1`, the activity change, negative = inhibition was inconclusive: -54.2%. With `O=C(OCc1nnc(-c2ccc(Cl)cc2)o1)c1ccc(O)cc1` the activity change, negative = inhibition was inconclusive: -42%. With `COc1ncccc1C(=O)NC1CCCc2c1cnn2-c1cc(C)cc(C)c1` (stereo not drawn) the activity change, negative = inhibition was active: -61.2%. For `Cc1ccc(S(=O)(=O)NCC(=O)OCC(=O)N(CCC#N)c2ccccc2)cc1`, the activity change, negative = inhibition was active: -63.9%. In the case of `CC1CCCCC1NC(=O)/C(C#N)=C/c1ccc(F)c(F)c1` (stereo not drawn), the activity change, negative = inhibition is reported as inactive: 26.5%. In the case of `COc1cc(/C=N/NC(=O)c2cc(-c3cccc(OC(C)C)c3)nc3ccccc23)ccc1O`, the activity change, negative = inhibition is reported as active: -60.6%. For `COc1cccc(CN(C)C(=O)c2cc(S(=O)(=O)N3CCCCCC3)ccc2OC)c1`, the activity change, negative = inhibition was inconclusive: -59.4%. In the case of `O=C(CCN1C(=O)S/C(=C\c2ccc(Cl)cc2)C1=O)Nc1ccc(C(=O)O)cc1`, the activity change, negative = inhibition is reported as inactive: 22.5%. In the case of `Cc1ccc(N(Cc2cc3ccccc3[nH]c2=O)C(=O)c2cccs2)cc1C`, the activity change, negative = inhibition is reported as inactive: -13.2%. In the case of `CC1Sc2ccc(S(=O)(=O)N3CCC(C(=O)Nc4cccc(Cl)c4)CC3)cc2NC1=O` (stereo not drawn), the activity change, negative = inhibition is reported as active: -99.9%. In the case of `COC(=O)c1cc(-c2ccccc2)sc1NC(=O)CN1C(=O)c2ccccc2C1=O`, the activity change, negative = inhibition is reported as active: -64.1%. With `CCOC(=O)c1sc(=NC(=O)c2ccc(OC(C)C)cc2)n(C)c1C` the activity change, negative = inhibition was inactive: -26%. In the case of `OCCOCCOc1ccc(-c2nn[nH]n2)cc1`, the activity change, negative = inhibition is reported as inconclusive: -49%. In the case of `Cc1cccc(Cn2c(N3CCN(C)CC3)nc3c2c(=O)[nH]c(=O)n3C)c1`, the activity change, negative = inhibition is reported as inactive: 11.6%. In the case of `CCCCOCCCNc1ncnc2c1[nH]c1ccccc12`, the activity change, negative = inhibition is reported as inconclusive: -42.8%. In the case of `Cc1ccc(C(=O)NCCSc2snnc2C)cc1`, the activity change, negative = inhibition is reported as inactive: 9.45%. In the case of `CN(C)c1ccc(-c2cc(O)c3ncccc3c2)cc1`, the activity change, negative = inhibition is reported as active: -97.4%. For `O=C(COc1ccccc1)Nc1nnc2n1CCS2`, the activity change, negative = inhibition was inactive: -5.27%. For `CCCN(CCC)C(=O)C1CCN(c2ccc(S(=O)(=O)N3CCOCC3)cc2[N+](=O)[O-])CC1`, the activity change, negative = inhibition was inconclusive: -57.1%. With `COc1ccc(C)cc1Nc1c2c(nc3ccccc13)CCC2` the activity change, negative = inhibition was active: -66.2% and active: -88.5%. For `CC(=O)c1ccc(NC(=O)COc2ccccc2-c2nc(C(C)C)no2)cc1`, the activity change, negative = inhibition was inactive: 10.7%. With `C=CCNC(=S)NNC(=O)CCC(O)COCCC(C)C` (stereo not drawn) the activity change, negative = inhibition was inconclusive: -44.9%. For `O=C(CC1C(=O)NCCN1Cc1ccc(-c2ccccc2)cc1)NCCOc1cccnc1` (stereo not drawn), the activity change, negative = inhibition was inconclusive: -49%. With `Cc1ccc(Cl)cc1Nc1nc(-c2cccnc2)cs1` the activity change, negative = inhibition was inconclusive: -54.2%. With `CCCC(=O)Nc1ccc(C(=O)Nc2cc(C(F)(F)F)ccc2Cl)cc1` the activity change, negative = inhibition was inconclusive: -57.6%. For `Cc1ccc(O)c(Nc2ncnc3ccc([N+](=O)[O-])cc23)c1`, the activity change, negative = inhibition was inconclusive: -47%. For `COc1cc2c(cc1NC(=O)c1cc(-c3ccncc3)nc3ccccc13)oc1ccccc12`, the activity change, negative = inhibition was inconclusive: -47.4%. With `Cc1ccnc2nc(C(=O)Nc3nnc(-c4ccccc4)o3)nn12` the activity change, negative = inhibition was inconclusive: -42.6%. With `CC(C)(C)CN1CCN(CC#Cc2ccccc2)CC1CCO` (stereo not drawn) the activity change, negative = inhibition was inactive: 85.8%. For `COc1ccc(OC)c(/C=N/NC(=O)c2ccc(Cn3cc([N+](=O)[O-])cn3)o2)c1`, the activity change, negative = inhibition was inconclusive: -53%. In the case of `CN(C)CCNc1nc(-c2ccco2)c2c(c1C#N)CC(C)(C)OC2`, the activity change, negative = inhibition is reported as active: -100%. With `CCOC(=O)c1c(C)c(C(=O)NCc2ccc(Cl)cc2)c(C)n1C` the activity change, negative = inhibition was inactive: -30.8%. With `O=C(c1ccco1)C(O)c1ccco1` (stereo not drawn) the activity change, negative = inhibition was active: -61.8%. With `Cc1ccc(N2C(=O)C3C4C=CC(CNC(=S)N5CCN(c6cccc(C)c6)C(C)C5)(O4)C3C2=O)cc1` (stereo not drawn) the activity change, negative = inhibition was inconclusive: -45.2%. With `CC(C)NC(=O)Nc1ccc2c(c1)C(=O)N([C@H](C)CO)C[C@H](C)[C@@H](CN(C)C(=O)NC(C)C)O2` the activity change, negative = inhibition was inactive: 4.43%. For `CCN1CCN(CCNC(=O)c2ccc(/C=C3/Sc4ccccc4N(Cc4cccc(C)c4)C3=O)cc2)CC1`, the activity change, negative = inhibition was inconclusive: -52.8%. In the case of `CC(C)N(C)S(=O)(=O)c1ccc(NC(=O)C2=COCCO2)cc1`, the activity change, negative = inhibition is reported as inactive: 2.06%. For `CC(C)(C)OC(=O)N1CCC(c2c(C(=O)NCc3ccco3)cnn2-c2ccc(F)cc2F)CC1`, the activity change, negative = inhibition was inconclusive: 0%. For `O=C(O)CCSCCCN1C(=O)c2cccc3cccc(c23)C1=O`, the activity change, negative = inhibition was inconclusive: -56.1%. With `COc1cc2[nH]c(=S)nc(NCc3ccccn3)c2cc1OC` the activity change, negative = inhibition was inconclusive: -43%. With `COc1cccc(CNC2CCCc3ccccc32)c1OC` (stereo not drawn) the activity change, negative = inhibition was inactive: -21.9%. In the case of `CCCN1C/C(=C/c2cccc([N+](=O)[O-])c2)C(=O)/C(=C/c2cccc([N+](=O)[O-])c2)C1`, the activity change, negative = inhibition is reported as active: -105%. With `Cc1cccc(C(=O)Nc2ccc(C(=O)c3ccccc3)cc2)c1` the activity change, negative = inhibition was inconclusive: -49.3%. In the case of `O=C(NC1CCc2ccccc21)C1=CN2CCN(Cc3ccccc3)C(=O)N=C2O1` (stereo not drawn), the activity change, negative = inhibition is reported as inactive: -13.4%. For `Cc1nc2c(-c3ccccc3)c(C)[nH]n2c(=O)c1Cc1ccc(Br)cc1`, the activity change, negative = inhibition was active: -97.4%. In the case of `O=C(COC(=O)CCC(=O)c1ccc(F)cc1)NCc1ccc(Cl)cc1`, the activity change, negative = inhibition is reported as inactive: -17.9%. With `CC(C)(Oc1ccc(Cl)cc1)C(=O)N1CCN(C(=O)c2ccco2)CC1` the activity change, negative = inhibition was inconclusive: -40.2%. In the case of `O=c1c2cnn(-c3ccccc3)c2ncn1CCc1ccccc1`, the activity change, negative = inhibition is reported as inactive: 7.77%. In the case of `CCN(CC)CCC(=O)N1c2ccccc2Sc2ccc(C(F)(F)F)cc21`, the activity change, negative = inhibition is reported as active: -85%. With `COc1ccc(C2CC2/C(=N/OC(=O)c2cccs2)c2ccccc2)cc1` (stereo not drawn) the activity change, negative = inhibition was inactive: -5.1%. With `CCCCNC(=O)c1cn(CC)c2ccc(S(=O)(=O)N3CCCC3)cc2c1=O` the activity change, negative = inhibition was inconclusive: -42.8%. In the case of `CC(SCc1ccccc1)C(=O)N/N=C/c1ccc2c(c1)OCO2` (stereo not drawn), the activity change, negative = inhibition is reported as inconclusive: -50.7%. In the case of `CC(C)NC(=O)COc1coc(CN2CCN(c3ccccc3)CC2)cc1=O`, the activity change, negative = inhibition is reported as inconclusive: -41.6%. With `COc1cc(CNCCN(C)C)c(Br)cc1OC1CCCC1` the activity change, negative = inhibition was inconclusive: -53.6%. In the case of `COc1ccc(F)cc1C(=O)C1CCCN(Cc2cccn2-c2ccccn2)C1` (stereo not drawn), the activity change, negative = inhibition is reported as inconclusive: -59.6%. For `O=C1CCC(c2ccc(-n3ccnc3)cc2)=NN1`, the activity change, negative = inhibition was inconclusive: -43.4%. In the case of `Cc1ccc(-n2ncc3c(N4CCCCC4)ncnc32)cc1Cl`, the activity change, negative = inhibition is reported as active: -88.6%. For `COc1ccc2cc(C(=O)C3CCCN(C(=O)/C=C/c4ccccn4)C3)ccc2c1` (stereo not drawn), the activity change, negative = inhibition was inconclusive: -53.1%. In the case of `COc1ccc(-c2cc(OC(=O)c3ccccc3C)c3c(C)oc(C)c3c(=O)c2)cc1`, the activity change, negative = inhibition is reported as inactive: 33.7%.
